Test results published in PubChem BioAssay AID602441 (National Center for Advancing Translational Sciences (NCATS), 2012).
Screen size: about 1,300 compounds; fewer than 10 were called active. Not shown: some 9% with an inconclusive outcome. The call rests on the fitted dose curve; in most records, active means well fitted curve in the direction sought with a large enough effect; inconclusive means small, poorly fitted or top-dose-only effect, or another doubt; inactive means no such curve, though single readings can be large or run the other way. Some of the results follow.

experiment: qHTS for antagonists of the Thyroid Stimulation Hormone Receptor: Hit Validation in Parental Cell Line; details: parental HEK293 cells lacking TSHR, counter-screen; series mostly up to 56.9 µM; activity change, negative = inhibition: at the top concentration; further: 0% is about no effect
Outline: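 Counterscreen in untransfected parental HEK-EM 293 cells. Lysate cAMP displaces cAMP-d2 from cryptate-tagged anti-cAMP antibody, and homogeneous TR-FRET is read at 665 nm with 337 nm excitation after stimulation.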

Structure (SMILES)	activity change, negative = inhibition
CCN(CC)C(=O)Cn1c(=O)n(-c2ccccc2)c(=O)c2sccc21	inactive: 0.869%
O=C(COc1ccc(Cl)cc1)Nc1nc(-c2cccs2)cs1	inactive: -10%
O=[N+]([O-])c1cc(Br)c(O)c(/C=N/Nc2nnnn2-c2cccc3ccccc23)c1	inactive: -0.201%
CCOc1cc(/C=C2\SC(=NC)N(C)C2=O)c(Br)cc1OC(C)=O	inactive: 5.71%
Fc1cccc(Cl)c1CNCc1cccnc1	inactive: 4.37%
Cc1cc(C(C)(C)C)oc1C(=O)N(CC(=O)NC1CCCC1)c1cccc(C(F)(F)F)c1	inactive: -7.39%
COc1cc(C(=O)N/N=C/c2cn(Cc3ccccc3)c3ccccc23)ccc1O	inactive: -4.29%
O=S(=O)(Nc1cccc(-n2cnnn2)c1)c1ccccc1C(F)(F)F	inactive: 3.18%
Cc1cccc2sc(NC(=O)C3CCN(S(=O)(=O)c4cc([N+](=O)[O-])ccc4Cl)CC3)nc12	inactive: -7.42%
O=C1OC(CC(=O)N(Cc2nnc(-c3ccc(Cl)cc3)o2)C2CC2)c2ccccc21 (centres undefined)	inactive: -9.64%
O=C1NC(=S)SC1=C1CCCCCC1	inactive: -0.469%
O=C(/C=C/c1cccc(Cl)c1)c1ccc([N+](=O)[O-])o1	inactive: -2.79%
O=C(Nc1ccncc1)c1ccc2c(c1)C(=O)N(C1CCCCC1)C2=O	inactive: -5.95%
Cn1c2c(c(=O)[nH]c1=O)C(c1ccc(O)cc1)C1=C(N2)c2ccccc2C1=O (centres undefined)	inactive: -11.6%
CC1(C)C2CCC1(C)C(OC(=O)CCn1ccnc1)C2 (centres undefined)	inactive: 6.23%
CC[C@@H](C(=O)[C@@H](C)[C@@H](O)[C@H](C)CCc1ccc(C)c(O)c1C(=O)O)[C@H]1O[C@](CC)([C@H]2CC[C@](O)(CC)[C@H](C)O2)C[C@@H]1C	inactive: -5.32%
COc1cc(/C=C2\SC(=O)N(c3ccc(Cl)cc3)C2=O)cc([N+](=O)[O-])c1O	inactive: -1.95%
CC(C)CC(=O)NC(NC(=S)Nc1sc2c(c1C#N)CCCC2)C(Cl)(Cl)Cl (centres undefined)	inactive: -1.19%
CCCCn1c(NC(=O)c2ccccc2Cl)c(C#N)c2nc3ccccc3nc21	inactive: -2.9%
CC(C)C(NC(=O)Cc1ccccc1)C(=O)N1CCN(c2cccc(Cl)c2)CC1 (centres undefined)	inactive: 3.45%
CCOc1ccc(CCNC(=O)c2ccc3c(=O)[nH]c4c(C(=O)NC(C)C)sc(=S)n4c3c2)cc1	inactive: -4.84%
CC(C)N(C(=O)Cn1c(-c2cccnc2)ccc(C#N)c1=O)C(C)C	inactive: 1.02%
COc1ccc(-c2cc(C3CCN(c4cc(Cl)nc(N)n4)CC3)[nH]n2)cc1	inactive: -6.08%
CC(=O)N(C)c1ccc(N=NC2C(=O)N(C(N)=S)N=C2C)cc1 (centres undefined)	inactive: -1.04%
CN(CC(=O)Nc1ccccc1C(F)(F)F)Cc1c(O)ccc2ccccc12	inactive: 2.15%

Molecules listed so far containing an NH in an aromatic ring:
Structure (SMILES)	activity change, negative = inhibition
Cn1c2c(c(=O)[nH]c1=O)C(c1ccc(O)cc1)C1=C(N2)c2ccccc2C1=O (centres undefined)	inactive: -11.6%
CCOc1ccc(CCNC(=O)c2ccc3c(=O)[nH]c4c(C(=O)NC(C)C)sc(=S)n4c3c2)cc1	inactive: -4.84%
COc1ccc(-c2cc(C3CCN(c4cc(Cl)nc(N)n4)CC3)[nH]n2)cc1	inactive: -6.08%

Next results follow:

Structure (SMILES)	activity change, negative = inhibition
CCOCCCNC(=O)C(NC(=O)c1ccc(=O)[nH]c1)c1ccc(Cl)cc1 (centres undefined)	inactive: 6.09%
COc1cc(/C=C(\C#N)c2nc3ccccc3s2)cc([N+](=O)[O-])c1O	inactive: -6.23%
Cc1ccc(C(=O)Nc2cccc([N+](=O)[O-])c2)cc1S(=O)(=O)Nc1ccc(NC(=O)c2ccccc2)cc1	inactive: 3.31%
O=C1NC(=S)S/C1=C\c1ccc(SCc2ccccc2)o1	inactive: -2.03%
CCCCS(=O)(=O)/C=C\C=C/S(=O)(=O)CCCC	inactive: -9.59%
O=C(Cn1ncc(Cl)c(Cl)c1=O)N1CCN(S(=O)(=O)c2ccc3ccccc3c2)CC1	inactive: 3.05%
COc1ccc(S(=O)(=O)NCCc2cn3nc(C)c(C)nc3n2)cc1F	inactive: 4.11%
Cc1ccccc1NC(=O)c1cc2ccccn2n1	inactive: 3.59%
CC(C)(C)C(=O)NC(NC(=S)Nc1sc2c(c1C#N)CCCC2)C(Cl)(Cl)Cl (centres undefined)	inactive: -2.81%
O=C(Nc1ncc(S(=O)(=O)c2ccc([N+](=O)[O-])cc2)s1)c1cccc2ccccc12	inactive: -6.94%
Nc1nc(SCC(=O)C23CC4CC(CC(C4)C2)C3)n[nH]1	inactive: 2.65%
COc1cc(C(=S)N2CCCC2)ccc1OCc1ccc(C)cc1	inactive: 2.76%
COc1ccc(-c2csc(NC(=O)c3ccccc3NS(=O)(=O)c3ccc(F)c(F)c3)n2)cc1	inactive: -4.14%
COc1ccc(NC(=O)Cc2nc3ccccc3[nH]2)cc1	inactive: 5.8%
Cc1ccc(CSCCNC(=O)c2ccc(N(C)S(=O)(=O)c3ccccc3)cc2)cc1	inactive: -7.18%
Cc1ccc(NC(=O)CSc2nc3ncc(Br)cc3[nH]2)cc1C	inactive: 3.71%
O=C(CC1C(=O)NCCN1Cc1cccc(F)c1F)NCCCC1CCCC1 (centres undefined)	inactive: 5.04%
Cc1cc(C(=O)COC(=O)c2ccc(O)cc2O)c(C)n1-c1ccccc1	inactive: -6.58%
CC(C)Nc1ncnc2c1nnn2Cc1ccccc1	inactive: 4.9%
O=C(Cn1cnc2ccccc21)Nc1ccc2c(c1)OCCCO2	inactive: 1.89%
CCCSc1nsc(NC(=O)Nc2ccc(F)cc2F)n1	inactive: -9.12%
Cc1c(N=Nc2c(-c3ccc([N+](=O)[O-])cc3)[nH]n(C(N)=S)c2=O)cccc1[N+](=O)[O-]	inactive: -8.79%
O=S(=O)(Nc1ccc(O)c(Sc2nc3ccccc3s2)c1)c1cccc2ccccc12	inactive: 4%
COc1ccc(-n2ncc3c(N(C)C4CCCCC4)ncnc32)cc1	inactive: -4.15%
